± gives the standard deviation of the averaged measurements. The list shows a part of the results, in another mix than the full data. Small differences around the control level are noise.
Each target was assayed with Nc1ncnc2c1ncn2[C@@H]1O[C@H](COP(=O)(O)OP(=O)(O)OP(=O)(O)O)[C@@H](O)[C@H]1O [adenosine triphosphate] (assay: NP40-soluble protein abundance relative to vehicle (solubility fold change) (ratio); higher = more soluble protein in presence of ATP). Settings: concentration: 0.1mM.
In short: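 Eight concentrations, 0.1 to 10 mM, were tested on Jurkat crude lysate for 10 min at room temperature and then 3 min at 37 °C, in three independent experiments. The lysate was solubilised with 0.8% NP40 and benzonase, ultracentrifuged, and the supernatant TMT-labelled for LC-MS/MS. Each value is the fold change against the detergent-processed vehicle in its own replicate, from vsn-normalised intensities.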

Amino acid sequences for entries named in this document (tags omitted). A change or cut given only in a name is not applied to a line headed by its entry.
UniProt P55795: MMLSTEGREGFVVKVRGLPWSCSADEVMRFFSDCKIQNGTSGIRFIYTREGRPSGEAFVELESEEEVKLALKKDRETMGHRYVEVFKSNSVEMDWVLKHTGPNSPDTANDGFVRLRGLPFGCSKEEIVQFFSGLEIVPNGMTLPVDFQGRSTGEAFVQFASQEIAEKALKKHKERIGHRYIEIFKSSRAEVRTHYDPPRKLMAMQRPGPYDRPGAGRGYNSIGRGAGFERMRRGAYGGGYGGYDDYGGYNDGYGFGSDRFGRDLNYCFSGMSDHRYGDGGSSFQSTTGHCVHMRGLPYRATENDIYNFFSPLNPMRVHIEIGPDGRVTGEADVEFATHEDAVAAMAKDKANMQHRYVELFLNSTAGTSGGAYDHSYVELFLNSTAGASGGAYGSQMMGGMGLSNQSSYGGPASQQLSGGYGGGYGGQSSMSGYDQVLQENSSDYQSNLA
UniProt P53801: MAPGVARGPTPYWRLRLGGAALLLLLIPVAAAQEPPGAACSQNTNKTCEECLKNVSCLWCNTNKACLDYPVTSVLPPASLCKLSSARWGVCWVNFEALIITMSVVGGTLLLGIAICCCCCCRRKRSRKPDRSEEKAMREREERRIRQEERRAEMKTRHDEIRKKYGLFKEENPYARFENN
UniProt P61457: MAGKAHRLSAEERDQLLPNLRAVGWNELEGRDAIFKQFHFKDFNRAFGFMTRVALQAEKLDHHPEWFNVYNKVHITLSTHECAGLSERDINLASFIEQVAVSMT
UniProt P55263: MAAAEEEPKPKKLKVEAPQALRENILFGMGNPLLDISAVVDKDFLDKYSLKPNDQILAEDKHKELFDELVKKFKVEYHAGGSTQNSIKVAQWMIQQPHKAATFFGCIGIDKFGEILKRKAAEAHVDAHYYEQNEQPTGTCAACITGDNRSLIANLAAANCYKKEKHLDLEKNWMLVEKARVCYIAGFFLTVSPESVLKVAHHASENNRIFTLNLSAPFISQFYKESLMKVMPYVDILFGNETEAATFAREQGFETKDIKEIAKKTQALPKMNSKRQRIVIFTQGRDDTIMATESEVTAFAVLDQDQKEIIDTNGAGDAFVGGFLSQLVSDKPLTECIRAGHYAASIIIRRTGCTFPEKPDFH
UniProt P55084: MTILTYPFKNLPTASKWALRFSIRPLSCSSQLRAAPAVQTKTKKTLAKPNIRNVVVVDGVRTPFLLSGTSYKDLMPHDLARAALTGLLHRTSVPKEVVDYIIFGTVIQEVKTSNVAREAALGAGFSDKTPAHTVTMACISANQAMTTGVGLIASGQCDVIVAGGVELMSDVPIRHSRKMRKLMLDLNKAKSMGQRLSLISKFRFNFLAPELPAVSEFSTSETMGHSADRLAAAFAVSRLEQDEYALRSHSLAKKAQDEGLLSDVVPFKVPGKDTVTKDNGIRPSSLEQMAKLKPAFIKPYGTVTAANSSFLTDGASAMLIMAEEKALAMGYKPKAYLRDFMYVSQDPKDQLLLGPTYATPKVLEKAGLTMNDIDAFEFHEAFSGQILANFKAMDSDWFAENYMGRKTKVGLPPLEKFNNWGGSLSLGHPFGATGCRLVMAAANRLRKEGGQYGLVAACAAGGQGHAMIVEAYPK
UniProt P56524: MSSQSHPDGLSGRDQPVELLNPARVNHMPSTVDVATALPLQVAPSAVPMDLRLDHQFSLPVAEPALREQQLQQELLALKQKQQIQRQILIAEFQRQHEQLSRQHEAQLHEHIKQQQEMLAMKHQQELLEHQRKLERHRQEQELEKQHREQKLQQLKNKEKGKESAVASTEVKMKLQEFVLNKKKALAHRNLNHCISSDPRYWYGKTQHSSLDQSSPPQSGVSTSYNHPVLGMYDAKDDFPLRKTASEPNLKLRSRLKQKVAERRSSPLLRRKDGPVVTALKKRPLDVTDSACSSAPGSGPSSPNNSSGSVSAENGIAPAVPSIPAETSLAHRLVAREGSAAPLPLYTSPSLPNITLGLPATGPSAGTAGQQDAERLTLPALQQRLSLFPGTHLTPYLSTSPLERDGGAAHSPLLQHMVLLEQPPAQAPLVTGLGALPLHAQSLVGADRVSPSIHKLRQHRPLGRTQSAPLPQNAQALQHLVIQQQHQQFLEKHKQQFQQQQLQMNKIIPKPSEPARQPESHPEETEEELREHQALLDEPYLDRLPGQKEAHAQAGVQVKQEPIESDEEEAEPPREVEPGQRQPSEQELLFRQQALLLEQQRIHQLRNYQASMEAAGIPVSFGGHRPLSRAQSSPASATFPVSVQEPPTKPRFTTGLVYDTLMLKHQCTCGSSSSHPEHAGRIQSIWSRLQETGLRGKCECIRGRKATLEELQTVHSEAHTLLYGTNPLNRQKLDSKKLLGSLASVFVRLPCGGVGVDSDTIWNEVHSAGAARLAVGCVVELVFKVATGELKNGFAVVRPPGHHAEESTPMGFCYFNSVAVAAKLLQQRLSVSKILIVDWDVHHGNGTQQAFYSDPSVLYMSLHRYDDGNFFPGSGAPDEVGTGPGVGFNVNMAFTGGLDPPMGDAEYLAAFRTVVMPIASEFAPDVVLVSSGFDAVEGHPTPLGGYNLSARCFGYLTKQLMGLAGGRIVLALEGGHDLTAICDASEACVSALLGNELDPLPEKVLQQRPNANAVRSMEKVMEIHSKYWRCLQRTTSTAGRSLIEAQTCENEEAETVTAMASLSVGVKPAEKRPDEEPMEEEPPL
UniProt P57088: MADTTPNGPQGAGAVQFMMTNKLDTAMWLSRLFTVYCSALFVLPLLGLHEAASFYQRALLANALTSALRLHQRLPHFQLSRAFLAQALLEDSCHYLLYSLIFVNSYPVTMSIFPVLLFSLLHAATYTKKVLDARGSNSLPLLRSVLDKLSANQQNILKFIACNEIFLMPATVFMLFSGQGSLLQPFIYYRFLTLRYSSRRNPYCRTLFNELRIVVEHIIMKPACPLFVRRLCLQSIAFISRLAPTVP
UniProt P85037: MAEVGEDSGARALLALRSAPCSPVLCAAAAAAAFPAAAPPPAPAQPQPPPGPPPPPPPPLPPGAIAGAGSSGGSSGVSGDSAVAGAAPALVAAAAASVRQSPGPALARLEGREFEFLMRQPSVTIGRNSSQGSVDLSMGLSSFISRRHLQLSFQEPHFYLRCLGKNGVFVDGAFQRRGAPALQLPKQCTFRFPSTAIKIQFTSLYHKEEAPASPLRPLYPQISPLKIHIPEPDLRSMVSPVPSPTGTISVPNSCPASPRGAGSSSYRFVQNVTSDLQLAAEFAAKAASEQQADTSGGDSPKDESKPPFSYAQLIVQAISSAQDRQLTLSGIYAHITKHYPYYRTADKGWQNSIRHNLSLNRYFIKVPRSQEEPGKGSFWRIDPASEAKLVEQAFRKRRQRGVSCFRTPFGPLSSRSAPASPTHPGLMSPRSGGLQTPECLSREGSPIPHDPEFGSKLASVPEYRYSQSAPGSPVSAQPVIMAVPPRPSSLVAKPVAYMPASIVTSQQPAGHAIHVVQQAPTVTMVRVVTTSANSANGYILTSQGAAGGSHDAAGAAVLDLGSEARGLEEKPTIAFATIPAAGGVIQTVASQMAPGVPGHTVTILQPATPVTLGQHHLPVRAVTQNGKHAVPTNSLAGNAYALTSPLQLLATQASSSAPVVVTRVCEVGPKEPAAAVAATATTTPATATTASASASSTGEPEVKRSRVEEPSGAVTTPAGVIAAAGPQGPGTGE
UniProt P53794: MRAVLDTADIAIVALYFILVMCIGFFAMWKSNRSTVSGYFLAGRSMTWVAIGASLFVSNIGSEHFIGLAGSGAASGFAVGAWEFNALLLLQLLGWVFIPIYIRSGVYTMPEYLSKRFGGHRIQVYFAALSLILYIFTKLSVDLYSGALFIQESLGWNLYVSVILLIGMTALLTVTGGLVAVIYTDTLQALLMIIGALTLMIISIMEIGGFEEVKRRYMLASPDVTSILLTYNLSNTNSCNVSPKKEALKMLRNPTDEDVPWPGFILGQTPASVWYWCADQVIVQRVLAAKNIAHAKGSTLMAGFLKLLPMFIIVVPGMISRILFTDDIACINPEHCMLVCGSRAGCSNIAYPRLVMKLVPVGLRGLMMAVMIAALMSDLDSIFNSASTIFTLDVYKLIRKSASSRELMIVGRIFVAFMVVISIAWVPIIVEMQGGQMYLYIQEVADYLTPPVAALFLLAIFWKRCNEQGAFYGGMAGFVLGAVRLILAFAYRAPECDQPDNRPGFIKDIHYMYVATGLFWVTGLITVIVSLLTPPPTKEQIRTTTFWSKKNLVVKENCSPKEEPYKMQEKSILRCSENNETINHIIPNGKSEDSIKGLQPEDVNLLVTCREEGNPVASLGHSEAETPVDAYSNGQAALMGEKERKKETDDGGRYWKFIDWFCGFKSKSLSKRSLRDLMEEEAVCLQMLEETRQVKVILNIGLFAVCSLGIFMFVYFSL
UniProt P61970, whole entry: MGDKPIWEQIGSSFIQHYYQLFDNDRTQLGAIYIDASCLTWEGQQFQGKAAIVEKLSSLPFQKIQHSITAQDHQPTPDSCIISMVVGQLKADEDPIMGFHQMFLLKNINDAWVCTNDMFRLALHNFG
UniProt P53041: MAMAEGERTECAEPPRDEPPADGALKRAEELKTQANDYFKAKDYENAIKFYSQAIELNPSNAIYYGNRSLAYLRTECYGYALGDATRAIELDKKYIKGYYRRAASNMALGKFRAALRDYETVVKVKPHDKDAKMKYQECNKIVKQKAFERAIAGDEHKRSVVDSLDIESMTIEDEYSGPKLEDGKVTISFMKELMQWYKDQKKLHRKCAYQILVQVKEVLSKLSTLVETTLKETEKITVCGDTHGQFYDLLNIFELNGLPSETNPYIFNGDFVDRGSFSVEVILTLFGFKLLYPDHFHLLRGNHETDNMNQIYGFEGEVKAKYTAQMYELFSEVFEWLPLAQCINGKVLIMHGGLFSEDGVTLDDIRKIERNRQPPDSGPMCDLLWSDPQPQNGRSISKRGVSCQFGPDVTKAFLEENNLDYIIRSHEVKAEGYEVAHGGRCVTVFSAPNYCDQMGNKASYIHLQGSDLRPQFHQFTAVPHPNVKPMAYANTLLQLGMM
UniProt P61968: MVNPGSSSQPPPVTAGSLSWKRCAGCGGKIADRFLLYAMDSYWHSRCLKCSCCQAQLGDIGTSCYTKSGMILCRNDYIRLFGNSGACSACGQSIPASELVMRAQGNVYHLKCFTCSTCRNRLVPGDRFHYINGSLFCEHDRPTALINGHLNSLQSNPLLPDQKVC
UniProt P58557: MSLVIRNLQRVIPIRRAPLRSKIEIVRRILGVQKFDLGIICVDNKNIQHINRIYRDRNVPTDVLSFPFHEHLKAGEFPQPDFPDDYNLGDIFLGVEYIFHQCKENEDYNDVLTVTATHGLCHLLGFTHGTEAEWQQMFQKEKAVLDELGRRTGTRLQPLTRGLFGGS
UniProt P61009: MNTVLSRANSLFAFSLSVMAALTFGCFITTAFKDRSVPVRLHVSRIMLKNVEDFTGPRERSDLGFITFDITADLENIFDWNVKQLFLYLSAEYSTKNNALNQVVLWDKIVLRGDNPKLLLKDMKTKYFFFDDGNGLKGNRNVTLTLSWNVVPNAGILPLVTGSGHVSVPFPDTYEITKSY
UniProt P62699: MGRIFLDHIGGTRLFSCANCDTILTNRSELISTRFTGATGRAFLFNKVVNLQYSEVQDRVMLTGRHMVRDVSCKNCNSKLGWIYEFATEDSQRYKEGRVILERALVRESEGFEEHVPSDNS
UniProt Q00169: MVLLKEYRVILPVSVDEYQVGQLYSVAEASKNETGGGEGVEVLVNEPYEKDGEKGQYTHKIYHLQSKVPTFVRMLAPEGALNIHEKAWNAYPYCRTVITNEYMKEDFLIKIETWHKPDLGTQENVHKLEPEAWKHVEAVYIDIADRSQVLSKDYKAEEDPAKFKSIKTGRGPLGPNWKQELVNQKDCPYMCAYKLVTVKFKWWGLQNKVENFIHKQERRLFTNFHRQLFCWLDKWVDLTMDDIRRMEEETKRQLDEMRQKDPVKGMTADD
UniProt P61764, whole entry: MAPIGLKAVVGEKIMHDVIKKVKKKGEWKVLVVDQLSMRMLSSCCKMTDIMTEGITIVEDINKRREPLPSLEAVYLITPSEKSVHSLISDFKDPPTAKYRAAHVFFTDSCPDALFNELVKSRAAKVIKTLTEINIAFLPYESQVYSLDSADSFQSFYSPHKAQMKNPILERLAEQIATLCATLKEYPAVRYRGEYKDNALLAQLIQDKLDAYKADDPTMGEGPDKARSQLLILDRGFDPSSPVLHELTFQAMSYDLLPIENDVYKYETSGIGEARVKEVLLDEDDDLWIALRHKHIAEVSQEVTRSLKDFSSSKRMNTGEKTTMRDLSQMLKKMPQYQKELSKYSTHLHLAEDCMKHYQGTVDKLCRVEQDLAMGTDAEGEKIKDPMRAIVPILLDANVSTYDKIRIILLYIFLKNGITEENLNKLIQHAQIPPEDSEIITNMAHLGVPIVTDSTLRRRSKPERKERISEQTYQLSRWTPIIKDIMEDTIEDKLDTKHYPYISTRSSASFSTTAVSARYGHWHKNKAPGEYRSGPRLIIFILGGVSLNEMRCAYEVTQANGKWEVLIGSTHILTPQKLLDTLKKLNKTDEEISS

Target | NP40-soluble protein abundance
GFER (UniProt P55789) | 0.909 ± 0.1
UniProt P62140 | 1.02 ± 0.03
UniProt Q00325 and related entries | 0.911 ± 0.034
HNRNPH2 (UniProt P55795) | 1.08 ± 0.033
PTTG1IP (UniProt P53801) | 0.98 ± 0.04
EEFSEC (UniProt P57772) | 1.02 ± 0.037
UniProt P61221 | 1.03 ± 0.071
UniProt P62277 | 0.902 ± 0.14
PCBD1 (UniProt P61457) | 0.941 ± 0.037
ADK (UniProt P55263) | 1.01 ± 0.063
HADHB (UniProt P55084) | 0.994 ± 0.026
HSPA2 (UniProt P54652) | 0.979 ± 0.037
HDAC4 (UniProt P56524) | 1.04 ± 0.1
SLC12A2 (UniProt P55011) | 0.984 ± 0.048
UniProt P98155 and related entries | 0.988 ± 0.035
UniProt P57088 and related entries | 0.888 ± 0.085
UniProt P55060 and related entries | 0.966 ± 0.03
PLK1 (UniProt P53350) | 0.983 ± 0.027
FOXK1 (UniProt P85037) | 0.987 ± 0.046

Target | NP40-soluble protein abundance
UniProt P60174 and related entries | 0.966 ± 0.037
UniProt P62256 and related entries | 0.95 ± 0.042
CD81 (UniProt P60033) | 0.933 ± 0.042
MAX (UniProt P61244) | 0.798 ± 0.17
SLC5A3 (UniProt P53794) | 1.13 ± 0.11
UniProt P61970 | 0.995 ± 0.03
UniProt P62805 | 0.84 ± 0.12
PPP5C (UniProt P53041) | 1.03 ± 0.067
LMO4 (UniProt P61968) | 0.926 ± 0.032
UniProt P58557 and related entries | 0.957 ± 0.14
UniProt P61009 | 1.02 ± 0.038
YPEL5 (UniProt P62699) | 0.9516 ± 0.0092
UniProt P84085 | 1.07 ± 0.14
UniProt P84095 | 1.01 ± 0.061
PITPNA (UniProt Q00169) | 1.02 ± 0.063
UniProt P61764 and related entries | 1.02 ± 0.03
UniProt P62701 | 0.927 ± 0.12
UniProt P62857 | 0.899 ± 0.18

Same assay, conditions: concentration: 0.5mM

Target | NP40-soluble protein abundance
GFER (UniProt P55789) | 0.861 ± 0.17
UniProt P62140 | 1.03 ± 0.047
UniProt Q00325 and related entries | 0.916 ± 0.079
HNRNPH2 (UniProt P55795) | 1.07 ± 0.065
PTTG1IP (UniProt P53801) | 0.941 ± 0.053
EEFSEC (UniProt P57772) | 1.01 ± 0.026
UniProt P61221 | 1.03 ± 0.063
UniProt P62277 | 0.83 ± 0.13
PCBD1 (UniProt P61457) | 0.878 ± 0.068
ADK (UniProt P55263) | 1.05 ± 0.054
HADHB (UniProt P55084) | 0.995 ± 0.04
HSPA2 (UniProt P54652) | 0.92 ± 0.033
HDAC4 (UniProt P56524) | 0.987 ± 0.078
SLC12A2 (UniProt P55011) | 0.986 ± 0.026
UniProt P98155 and related entries | 0.985 ± 0.014
UniProt P57088 and related entries | 0.887 ± 0.2
UniProt P55060 and related entries | 0.966 ± 0.03
PLK1 (UniProt P53350) | 0.907 ± 0.026
FOXK1 (UniProt P85037) | 1.01 ± 0.052

Target | NP40-soluble protein abundance
UniProt P60174 and related entries | 0.974 ± 0.018
UniProt P62256 and related entries | 0.942 ± 0.056
CD81 (UniProt P60033) | 0.901 ± 0.1
MAX (UniProt P61244) | 0.843 ± 0.29
SLC5A3 (UniProt P53794) | 1.1 ± 0.25
UniProt P61970 | 0.988 ± 0.057
UniProt P62805 | 0.777 ± 0.083
PPP5C (UniProt P53041) | 1.04 ± 0.056
LMO4 (UniProt P61968) | 1 ± 0.049
UniProt P58557 and related entries | 0.937 ± 0.057
UniProt P61009 | 1.03 ± 0.022
YPEL5 (UniProt P62699) | 0.92 ± 0.11
UniProt P84085 | 0.981 ± 0.033
UniProt P84095 | 1.01 ± 0.064
PITPNA (UniProt Q00169) | 1.02 ± 0.028
UniProt P61764 and related entries | 1.01 ± 0.052
UniProt P62701 | 0.892 ± 0.13
UniProt P62857 | 0.807 ± 0.094

Source: the supplement of paper PMC6411743
